Measurements reported in PubChem BioAssay AID1259308 (NCATS, 2017).
The whole screen tested about 59,000 reagents; below is a random part of them. About 1,510 of all reagents (2.6%) were called active. 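Calls use total luciferase alone and ignore viability, so some active siRNAs may act by altering cell number.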 Further read-outs or replicates are left out here.

- Aim: 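Genes whose loss raises luciferase production in HEK293 cells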 (primary screen)
- Cell system: human HEK293 embryonic kidney cells stably expressing firefly luciferase (HEK-CMV-Luc2-Hygro)
- Reagents: single siRNA against human genes, 0.8 pmol siRNA per well
- Duration: 72 h
- Detection: 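Reporter luminescence and viable-cell signal on separate replicate plates, given as percent of non-targeting control and median/MAD z-scores, plus per-cell luciferase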
- Reading the numbers: total luciferase, z-score: higher = more reporter protein produced
- Rule for the call: 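An siRNA counts as active if its total luciferase robust z-score exceeds 3; genes with two or more such siRNAs out of three were retested with fresh siRNAs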
- Meaning of the calls: active = raised luciferase; inactive = no rise

After knock-down of GALR1 [SID160769007], the screen gave total luciferase, z-score 0.288; inactive. Against GALR1 [SID160769016], the values are total luciferase, z-score 0.015; inactive. GALR1 [SID160769021] scored total luciferase, z-score 0.0769; inactive. Silencing of IRX1 [SID160748787] resulted in: total luciferase, z-score 1.93; inactive. After knock-down of IRX1 [SID160748788] the results were total luciferase, z-score -0.645; inactive. With knock-down of IRX1 [SID160748789] the results were total luciferase, z-score 0.327; inactive.

Knock-down of HS3ST2 [SID160723539] came out at: total luciferase, z-score -0.431; inactive. After knock-down of HS3ST2 [SID160723540] the results were total luciferase, z-score 0.0514; inactive. For HS3ST2 [SID160723541], the values are total luciferase, z-score 0.881; inactive. For EIF5B [SID160722760], the entry reads total luciferase, z-score -1.01; inactive. EIF5B [SID160722761] gave total luciferase, z-score -0.147; inactive. After knock-down of EIF5B [SID160722762] the results were total luciferase, z-score 1.86; inactive.
